{"source": "PubChem BioAssay AID1224826 (NIAID, 2016)", "aim": "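Knock-downs that raise or lower Tnf reporter signal after endotoxin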 (primary screen)", "cell system": "RAW264.7 G9 macrophages from mouse bearing reporters for p65 (GFP) and the Tnf promoter (mCherry)", "knock-down reagent": "siRNA pool against mouse genes, 100 nM", "timing": "16 h of LPS stimulation, after 2 days of siRNA transfection", "treatment": "bacterial lipopolysaccharide (Salmonella minnesota R595), 10 ng/ml", "read-out": "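Nuclear mCherry signal of the Tnf promoter reporter measured by imaging after background removal, scaled to each plate median and turned into robust z-scores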", "direction": "Tnf reporter robust z-score: higher = stronger Tnf promoter reporter signal after LPS", "active means": "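a well counts as active at a score of -1.3 or below (Tlr4 knock-down control median) or above 3 (raised signal); controls and wells holding fewer than 50 cells are excluded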", "meaning of the calls": "active = Tnf reporter clearly lowered or raised; inactive = no clear change in Tnf reporter", "note": "Here is a random part of about 17,000 reagents tested. In the full data, about 1,110 (6.6%) were called active. 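Active means lowered or raised reporter signal; replicate intensities are raw and not normalised per plate.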 A reagent listed more than once was tested more than once; the source does not tell the runs apart. Not all columns of the deposit are shown."}
{"target": "Copa", "Tnf reporter robust z-score": -1.2, "fewer than 50 cells in well": "enough cells in well", "Call": "inactive"}
{"target": "Smim5", "fewer than 50 cells in well": "fewer than 50 cells per well; well left out of calls", "Call": "inactive"}
{"target": "Rasgrp3", "Tnf reporter robust z-score": -0.65, "fewer than 50 cells in well": "enough cells in well", "Call": "inactive"}
{"target": "Ippk", "Tnf reporter robust z-score": 0.9, "fewer than 50 cells in well": "enough cells in well", "Call": "inactive"}
{"target": "Ippk", "Tnf reporter robust z-score": 1.1, "fewer than 50 cells in well": "enough cells in well", "Call": "inactive"}
{"target": "Ap3b1", "Tnf reporter robust z-score": -0.98, "fewer than 50 cells in well": "enough cells in well", "Call": "inactive"}
{"target": "Ift52", "Tnf reporter robust z-score": -0.5, "fewer than 50 cells in well": "enough cells in well", "Call": "inactive"}
{"target": "Ifrd1", "Tnf reporter robust z-score": 0.2, "fewer than 50 cells in well": "enough cells in well", "Call": "inactive"}
{"target": "Jrkl", "Tnf reporter robust z-score": 0.6, "fewer than 50 cells in well": "enough cells in well", "Call": "inactive"}
{"target": "Ppargc1b", "Tnf reporter robust z-score": 0.18, "fewer than 50 cells in well": "enough cells in well", "Call": "inactive"}
{"target": "Itga6", "Tnf reporter robust z-score": -0.55, "fewer than 50 cells in well": "enough cells in well", "Call": "inactive"}
{"target": "Zfp781a", "Tnf reporter robust z-score": -0.22, "fewer than 50 cells in well": "enough cells in well", "Call": "inactive"}
{"target": "Slc7a2", "Tnf reporter robust z-score": 2.82, "fewer than 50 cells in well": "enough cells in well", "Call": "inactive"}
{"target": "Rara", "Tnf reporter robust z-score": -0.82, "fewer than 50 cells in well": "enough cells in well", "Call": "inactive"}
{"target": "Slc9b1", "Tnf reporter robust z-score": -0.3, "fewer than 50 cells in well": "enough cells in well", "Call": "inactive"}
{"target": "Ttc19", "Tnf reporter robust z-score": -0.09, "fewer than 50 cells in well": "enough cells in well", "Call": "inactive"}
{"target": "Mup3", "Tnf reporter robust z-score": -2.2, "fewer than 50 cells in well": "enough cells in well", "Call": "active"}
{"target": "Atp5mg", "Tnf reporter robust z-score": 0.15, "fewer than 50 cells in well": "enough cells in well", "Call": "inactive"}
{"target": "Smim30", "Tnf reporter robust z-score": 0.17, "fewer than 50 cells in well": "enough cells in well", "Call": "inactive"}
{"target": "Krt72", "Tnf reporter robust z-score": -0.35, "fewer than 50 cells in well": "enough cells in well", "Call": "inactive"}
{"target": "Pnliprp1", "Tnf reporter robust z-score": 0.12, "fewer than 50 cells in well": "enough cells in well", "Call": "inactive"}

2 of these entries, set out differently.
| target | Tnf reporter robust z-score | fewer than 50 cells in well | Call |
| --- | --- | --- | --- |
| Krt72 | -0.35 | enough cells in well | inactive |
| Pnliprp1 | 0.12 | enough cells in well | inactive |
